Laboratory results: patent publication US20090226421A1
No constants are given. Whether binding was seen depends on the method and setting. Some results given as binding are weak or reduced against the parent protein; the word gives no strength. Blank lines part the entries; values can stand above or below the binder they belong to.

Legend:
Bet v 1 (birch) [1] = biological target: T1, Bet v 1 (birch) (UniProt P15494); assay: summary of the results (radio immuno assay of Example 49)
T1 sequence (125I-labelled (chloramine-T method) where used as the radiolabelled antigen, looked up): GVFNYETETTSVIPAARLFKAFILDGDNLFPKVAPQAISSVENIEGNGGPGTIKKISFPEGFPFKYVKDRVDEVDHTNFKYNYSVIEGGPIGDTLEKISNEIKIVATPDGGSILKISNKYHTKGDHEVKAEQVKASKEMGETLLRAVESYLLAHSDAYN

Bet v 1 (birch) [2] = biological target: T1, Bet v 1 (birch); assay: radio immuno assay, antibody on Protein G Sepharose, 125I-labelled Bet v 1
Bet v 1 (birch) [3] = biological target: T1, Bet v 1 (birch); assay: crosslinking radio immuno assay, birch pollen Sepharose and 125I-labelled Bet v 1
Bet v 1 (birch) [4] = biological target: T1, Bet v 1 (birch); assay: gel filtration fractions tested for binding of 125I-labelled Bet v 1 (Protein G Sepharose)

binding (Bet v 1 (birch) [1]): binds | binding (Bet v 1 (birch) [2]): binds | binding (Bet v 1 (birch) [3]): binds | binding (Bet v 1 (birch) [4]): binds
B1: Betv1-HG (antibody)
heavy: EVQLQQSGAELVKPGASVKLSCTASGFNIKDTYIHWVKQRPEQGLEWVGRIDPATGNTRYDPKFQGKATITADTSSNTAYLQLSSLTSEDTAVYYCASFRPGYALDYWGQGTSVTVSSASTKGPSVFPLAPCSRSTSESTAALGCLVKDYFPEPVTVSWNSGALTSGVHTFPAVLQSSGLYSLSSVVTVPSSSLGTKTYTCNVDHKPSNTKVDKRVAPEFLGGPSVFLFPPKPKDTLMISRTPEVTCVVVDVSQEDPEVQFNWYVDGVEVHNAKTKPREEQFNSTYRVVSVLTVLHQDWLNGKEYKCKVSNKGLPSSIEKTISKAKGQPREPQVYTLPPSQEEMTKNQVSLTCLVKGFYPSDIAVEWESNGQPENNYKTTPPVLDSDGSFFLYSRLTVDKSRWQEGNVFSCSVMHEALHNHYTQKSLSLSLGK
light: DIVMTQSHKFMSTSVGDRVSFTCKASQDVFTAVAWYQQKPGQSPKLLIYWASTRRTGVPDRFTGSGSGTDYTLTISSVQAEDLALYYCQQHFSTPPTFGGGTKLEIKRTVAAPSVFIFPPSDEQLKSGTASVVCLLNNFYPREAKVQWKVDNALQSGNSQESVTEQDSKDSTYSLSSTLTLSKADYEKHKVYACEVTHQGLSSPVTKSFNRGEC

binding (Bet v 1 (birch) [2]): binds | binding (Bet v 1 (birch) [3]): binds
B2: Betv1-IgG1 (antibody, not shown: a dimerising Fc or GST)
heavy: EVQLQQSGAELVKPGASVKLSCTASGFNIKDTYIHWVKQRPEQGLEWVGRIDPATGNTRYDPKFQGKATITADTSSNTAYLQLSSLTSEDTAVYYCASFRPGYALDYWGQGTSVTVSS
light: B1 light
